This is one part of the list. The data scatter; read single values as rough.
Target: T1, AMPD2 C310 (UniProt Q01433)
T1 sequence (whole entry): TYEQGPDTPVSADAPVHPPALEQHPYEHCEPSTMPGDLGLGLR
Assay: log2 mean competition ratio of IA-DTB cysteine labelling (DMSO/compound) (log2 ratio); higher = stronger cysteine engagement by compound
Settings: treatment time: 4 h, cell line lysate: HEK293T
Protocol: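 IA-DTB competitive cysteine chemoproteomics in HEK293T RIPA lysate. Lysates were treated with compound 29 or 30 at 50 or 200 µM for 4 h, then IA-DTB (500 µM, 1 h), trypsin-digested, NeutrAvidin-enriched and analysed by diaPASEF. Competition ratio = intensity DMSO / intensity compound (n=4 treated, n=64 DMSO); binding: mean log2 CR ≥ 1 and p ≤ 0.05 plus QC filters. Target is the cysteine site.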

| Structure (SMILES) | log2 mean competition ratio (50 µM) | log2 mean competition ratio (200 µM) |
| --- | --- | --- |
| O=C(CCl)N[C@@H]1CCCc2ccccc21 | 0.0133 | 0.117 |
| O=C(CCl)N[C@H]1CCCc2ccccc21 | 0.679 | -0.514 |

— the supplement of paper PMC11732987, “Enantioselective OTUD7B fragment discovery through chemoproteomics screening and high-throughput optimisation” (Communications Chemistry, 2025)
